These are yes or no findings as the source states them, for the method shown. In cells and extracts the contact can be indirect. Here binding means that the protein was enriched with, or labelled near, the bait; the list need not be complete.
Molecular target: T1, Lysine-specific methyltransferase Set7/9, Q8WTS6
T1 chain: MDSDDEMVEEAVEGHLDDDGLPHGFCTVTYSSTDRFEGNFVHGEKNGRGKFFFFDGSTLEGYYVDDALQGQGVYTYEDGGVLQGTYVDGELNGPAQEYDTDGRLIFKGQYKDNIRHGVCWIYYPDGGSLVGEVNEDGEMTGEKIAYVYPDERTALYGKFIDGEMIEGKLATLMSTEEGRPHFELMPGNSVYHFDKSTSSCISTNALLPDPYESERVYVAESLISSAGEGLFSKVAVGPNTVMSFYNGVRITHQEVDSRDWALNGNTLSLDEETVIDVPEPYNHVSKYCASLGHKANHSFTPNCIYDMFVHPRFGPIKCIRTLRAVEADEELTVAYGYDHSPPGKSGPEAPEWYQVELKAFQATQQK
Experiment: affinity purification with mass spectrometry; GST-pulldown assay coupled with LC-MS/MS mass-spectrometry to identify Set7/9 interacting proteins; no conditions given; only the target purified
Settings: remark: other sources report otherwise

binding: binds
B1: HMBG1, P09429 1-215 (protein)
chain: MGKGDPKKPRGKMSSYAFFVQTCREEHKKKHPDASVNFSEFSKKCSERWKTMSAKEKGKFEDMAKADKARYEREMKTYIPPKGETKKKFKDPNAPKRPPSAFFLFCSEYRPKIKGEHPGLSIGDVAKKLGEMWNNTAADDKQPYEKKAAKLKEKYEKDIAAYRAKGKPDAAKKGVVKAEKSKKKKEEEEDEEDEEDEEEEEDEEDEDEEEDDDDE

— article PMC8418608
